B1: Gbp2 (protein, UniProt P25555 1-427)
chain: MERELGMYGNDRSRSRSPVRRRLSDDRDRYDDYNDSSSNNGNGSRRQRRDRGSRFNDRYDQSYGGSRYHDDRNWPPRRGGRGRGGSRSFRGGRGGGRGRTLGPIVERDLERQFDATKRNFENSIFVRNLTFDCTPEDLKELFGTVGEVVEADIITSKGHHRGMGTVEFTKNESVQDAISKFDGALFMDRKLMVRQDNPPPEAAKEFSKKATREEIDNGFEVFIINLPYSMNWQSLKDMFKECGHVLRADVELDFNGFSRGFGSVIYPTEDEMIRAIDTFNGMEVEGRVLEVREGRFNKRKNNDRYNQRREDLEDTRGTEPGLAQDAAVHIDETAAKFTEGVNPGGDRNCFIYCSNLPFSTARSDLFDLFGPIGKINNAELKPQENGQPTGVAVVEYENLVDADFCIQKLNNYNYGGCSLQISYARRD
B2: Hrb1 (protein, UniProt P38922 1-454)
chain: MSDQERGSENNNRSRSRSRSPVRRRMSDDHGYERDNHLSRRSGNYNGRRKFADTYRGSRDRGEYRGGRERSDYRERERFNNRDNPRSRDRYDDRRRGRDVTGRYGNRRDDYPRSFRSRHNTRDDSRRGGFGSSGARGDYGPLLARELDSTYEEKVNRNYSNSIFVGNLTYDSTPEDLTEFFSQIGKVVRADIITSRGHHRGMGTVEFTNSDDVDRAIRQYDGAFFMDRKIFVRQDNPPPSNNIKERKALDRGELRHNRKTHEVIVKNLPASVNWQALKDIFKECGNVAHADVELDGDGVSTGSGTVSFYDIKDLHRAIEKYNGYSIEGNVLDVKSKESVHNHSDGDDVDIPMDDSPVNEEARKFTENVVGGGERNRLIYCSNLPFSTAKSDLYDLFETIGKVNNAELRYDSKGAPTGIAVVEYDNVDDADVCIERLNNYNYGGCDLDISYAKRL
B3: Tex1 (protein, UniProt P53851 1-422)
chain: MSTIGAVDILNQKTITSEVAASVTSKYLQSTFSKGNTSHIEDKRFIHVSSRSHSRFTSTPITPNEILSLKFHVSGSSMAYSRMDGSLTVWFIKDASFDKSVEVYIPDCCGSDKLATDLSWNPTSLNQIAVVSNSSEISLLLINEKSLTASKLRTLSLGSKTKVNTCLYDPLGNWLLAATKSEKIYLFDVKKDHSSVCSLNISDISQEDNDVVYSLAWSNGGSHIFIGFKSGYLAILKAKHGILEVCTKIKAHTGPITEIKMDPWGRNFITGSIDGNCYVWNMKSLCCELIINDLNSAVTTLDVCHLGKILGICTEDEMVYFYDLNSGNLLHSKSLANYKTDPVLKFYPDKSWYIMSGKNDTLSNHFVKNEKNLITYWKDMFDNTMIEKRRKNNGGGNNHNKRTSKNTDRIGKDRPSRFNSKK
B4: Thp2 (natural protein)
chain: MTKEEGRTYFESLCEEEQSLQESQTHLLNILDILSVLADPRSSDDLLTESLKKLPDLHRELINSSIRLRYDKYQTREAQLLEDTKTGRDVAAGVQNPKSISEYYSTFEHLNRDTLRYINLLKRLSVDLAKQVEVSDPSVTVYEMDKWVPSEKLQGILEQYCAPDTDIRGVDAQIKNYLDQIKMARAKFGLENKYSLKERLSTLTKELNHWRKEWDDIEMLMFGDDAHSMKKMIQKIDSLKSEINAPSESYPVDKEGDIVLE
B5: Sub2 (enzyme, UniProt Q07478 1-446)
chain: MSHEGEEDLLEYSDNEQEIQIDASKAAEAGETGAATSATEGDNNNNTAAGDKKGSYVGIHSTGFKDFLLKPELSRAIIDCGFEHPSEVQQHTIPQSIHGTDVLCQAKSGLGKTAVFVLSTLQQLDPVPGEVAVVVICNARELAYQIRNEYLRFSKYMPDVKTAVFYGGTPISKDAELLKNKDTAPHIVVATPGRLKALVREKYIDLSHVKNFVIDECDKVLEELDMRRDVQEIFRATPRDKQVMMFSATLSQEIRPICRRFLQNPLEIFVDDEAKLTLHGLQQYYIKLEEREKNRKLAQLLDDLEFNQVIIFVKSTTRANELTKLLNASNFPAITVHGHMKQEERIARYKAFKDFEKRICVSTDVFGRGIDIERINLAINYDLTNEADQYLHRVGRAGRFGTKGLAISFVSSKEDEEVLAKIQERFDVKIAEFPEEGIDPSTYLNN

These are yes or no findings as the source states them, for the method shown. Binding seen in cells or lysates may run through a third protein. Here binding means that the protein was enriched with, or labelled near, the bait; the list need not be complete. Sequences can lack the tags named with a protein.

This assay deals with T1, Hpr1 with a C-terminal FLAG-TEV-2xProtein-A (FTpA) tag (S. cerevisiae) (UniProt P17629).
T1 sequence: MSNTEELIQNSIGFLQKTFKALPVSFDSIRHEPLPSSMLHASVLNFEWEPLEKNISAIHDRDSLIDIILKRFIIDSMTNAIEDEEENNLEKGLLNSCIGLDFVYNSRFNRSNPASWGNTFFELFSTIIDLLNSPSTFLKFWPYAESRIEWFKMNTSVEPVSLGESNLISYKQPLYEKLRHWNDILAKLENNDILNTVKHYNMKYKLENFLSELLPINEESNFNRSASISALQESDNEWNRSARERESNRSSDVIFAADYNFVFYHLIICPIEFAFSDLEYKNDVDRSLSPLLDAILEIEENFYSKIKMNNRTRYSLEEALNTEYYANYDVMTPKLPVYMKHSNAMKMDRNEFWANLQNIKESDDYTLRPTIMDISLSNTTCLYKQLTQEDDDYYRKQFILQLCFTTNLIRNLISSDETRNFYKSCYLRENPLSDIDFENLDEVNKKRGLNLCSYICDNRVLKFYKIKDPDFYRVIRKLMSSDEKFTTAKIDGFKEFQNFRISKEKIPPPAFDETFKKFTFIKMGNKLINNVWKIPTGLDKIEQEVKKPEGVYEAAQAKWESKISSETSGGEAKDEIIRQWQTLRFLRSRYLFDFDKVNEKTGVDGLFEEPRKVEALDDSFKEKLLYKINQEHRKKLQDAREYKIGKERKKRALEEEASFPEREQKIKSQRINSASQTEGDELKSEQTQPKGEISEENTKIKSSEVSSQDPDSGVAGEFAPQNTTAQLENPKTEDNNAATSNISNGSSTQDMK
Nature of the assay: affinity purification with mass spectrometry.
Turning to B1, the binding result is given as “binds”.

For B2, the binding result is “binds”.

For the molecule B3, the binding entry was “binds”.

As to B4, the binding result is listed as “binds”.

Regarding B5, the binding result is listed as “binds”.
